± gives the uncertainty stated by the source. Many of these values have a large error.

The nature of this series: self-splicing fitness, log relative to wild type (ln ratio); higher = more splicing; Tetrahymena group I intron in knt gene, E. coli kanamycin selection, DiMSum; sequences stand for … in CUCUCU…GGAGGGAAAAGUUAUCAGGCAUGCACCUGGUAGCUAGUCUUUAAACCAAUAGAUUGCAUCGGUUUAAAAGGCAAGACCGUCAAAUUGCGGGAAAGGGGUCAACAGCCGUUCAGUACCAAGUCUCAGGGGAAACUUUGAGAUGGCCUUGCAAAGGGUAUGGUAAUAAGCUGACGGACAUGGUCCUAACCACGCAGCCAAGUCCUAAGUCAACAGAUCUUCUGUUGAUAUGGAUGCAGUUCACAGACUAAAUGUCGGUCGGGGAAGAUGUAUUCUUCUCAUAAGAUAUAGUCGGACCUCUCCUUAAUGGGAGCUAGCGGAUGAAGUGAUGCAACACUGGAGCCGCUGGGAACUAAUUUGUAUGCGAAAGUAUAUUGAUUAGUUUUGGAGUACUCGUGGUCG
A digest of the protocol: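 DiMSum derived fitness as the error-weighted combination of fold changes across replicates, kanamycin versus no kanamycin, normalised to wild type. E. coli BL21(DE3) held the library, which randomised all eight P1ex-region intron nucleotides within the knt kanamycin-resistance gene on pET-22b(+). Six replicate transformations grew overnight at 37°C or 30°C on LB agar with or without 25 μg/mL kanamycin, also containing 100 μg/mL carbenicillin, 50 μM IPTG and 0.2% rhamnose, and pooled colonies were amplicon-sequenced on an Illumina HiSeq 2500.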

Take ACGGAGCAAUAUUACGAUUC: the “self-splicing fitness (ln)” value (37 °C) is -2.08 ± 0.51.

On to UGUGAGCAAUAUUACGAGAA, for which the “self-splicing fitness (ln)” value (30 °C) is -1.93 ± 0.7.

Regarding UCUGAGCAAUAUUACGGCAU, the “self-splicing fitness (ln)” value (37 °C) is -2.93 ± 0.61.

As to UUACAGCAAUAUUACGGCCC, for the setting “37 °C”, the “self-splicing fitness (ln)” value was -1.13 ± 0.83.

UCGAAGCAAUAUUACGUUAC: the “self-splicing fitness (ln)” value (30 °C) is -4.41 ± 0.73 and the “self-splicing fitness (ln)” value (37 °C) was -2.95 ± 0.53.

Regarding AACGAGCAAUAUUACGAAUA, the “self-splicing fitness (ln)” value by setting is: (30 °C) -3.52 ± 0.52; (37 °C) -1.63 ± 0.34.

For UCUGAGCAAUAUUACGCACG, for the setting “37 °C”, the “self-splicing fitness (ln)” value is -3.51 ± 0.52.

Turning to UAAUAGCAAUAUUACGAUCC, under “37 °C”, the “self-splicing fitness (ln)” value was -3.08 ± 0.74.

In the case of UGGUAGCAAUAUUACGUUUC, under “37 °C”, the “self-splicing fitness (ln)” value was -2.62 ± 0.63.

For CGGAAGCAAUAUUACGUUCC, under “37 °C”, the “self-splicing fitness (ln)” value is -3 ± 1.1.

On to GGGCAGCAAUAUUACGAGCC, for which the “self-splicing fitness (ln)” value (30 °C) is -4.76 ± 1.

Turning to GUCUAGCAAUAUUACGACUA, the “self-splicing fitness (ln)” value (37 °C) was -0.595 ± 1.4.

Take CUACAGCAAUAUUACGAUCA: the “self-splicing fitness (ln)” value by setting is: (30 °C) -1.82 ± 0.17; (37 °C) -1.49 ± 0.2.

Take GGGGAGCAAUAUUACGAAUA: the “self-splicing fitness (ln)” value by setting is: (30 °C) -2.09 ± 0.57; (37 °C) -2.48 ± 1.1.

On to UGGAAGCAAUAUUACGGCAC, for which the “self-splicing fitness (ln)” value (30 °C) was -4.13 ± 0.74.

Consider UCGGAGCAAUAUUACGCGUU, for which the “self-splicing fitness (ln)” value is, setting by setting: (30 °C) -3.13 ± 1; (37 °C) -3.21 ± 1.

Turning to CGUUAGCAAUAUUACGCAUA, the “self-splicing fitness (ln)” value (30 °C) was -4.08 ± 0.72.

Consider UAUGAGCAAUAUUACGCGGC, for which the “self-splicing fitness (ln)” value is -4.02 ± 0.29 (30 °C) and -1.8 ± 0.25 (37 °C).

For the sequence AGACAGCAAUAUUACGGAAC, the “self-splicing fitness (ln)” value (30 °C) is -4.87 ± 0.51.

Consider AGAGAGCAAUAUUACGCGGG, for which the “self-splicing fitness (ln)” value (30 °C) was -2.33 ± 0.78 and the “self-splicing fitness (ln)” value (37 °C) is -0.234 ± 1.4.

Turning to AGGGAGCAAUAUUACGCAUC, the “self-splicing fitness (ln)” value is, setting by setting: (30 °C) -1.27 ± 1; (37 °C) -0.876 ± 0.54.

For the sequence GGGAAGCAAUAUUACGUCCU, the “self-splicing fitness (ln)” value reads like this: (30 °C) -3.88 ± 1.1; (37 °C) 0.254 ± 0.87.

As to GUUGAGCAAUAUUACGGUCG, where the note is “30 °C”, the “self-splicing fitness (ln)” value is -3.56 ± 0.52.

Regarding CUCCAGCAAUAUUACGCCAC, where the note is “37 °C”, the “self-splicing fitness (ln)” value is -2.54 ± 0.54.

Turning to UUCUAGCAAUAUUACGCCGG, the “self-splicing fitness (ln)” value (30 °C) is -1.42 ± 0.56.

As to AGCUAGCAAUAUUACGGAGG, the “self-splicing fitness (ln)” value reads like this: (30 °C) -3.54 ± 0.16; (37 °C) -1.33 ± 0.14.

Regarding AAAGAGCAAUAUUACGUUAC, the “self-splicing fitness (ln)” value (37 °C) was -1.84 ± 0.52.

Take UGGGAGCAAUAUUACGUCAC: the “self-splicing fitness (ln)” value (37 °C) was -1.38 ± 0.63.

As to AGAGAGCAAUAUUACGGCGG, the “self-splicing fitness (ln)” value (37 °C) is -1.87 ± 0.52.

As for GGGGAGCAAUAUUACGUUAA, the “self-splicing fitness (ln)” value runs as follows: (30 °C) -2.53 ± 0.4; (37 °C) -1.95 ± 0.35.

For the sequence CAUCAGCAAUAUUACGCGAU, the “self-splicing fitness (ln)” value is, setting by setting: (30 °C) -3.69 ± 0.23; (37 °C) -2.86 ± 0.32.

Turning to GGGGAGCAAUAUUACGGUAG, the “self-splicing fitness (ln)” value (37 °C) is -1.83 ± 0.53.

For the sequence CGUCAGCAAUAUUACGUACC, the “self-splicing fitness (ln)” value is, setting by setting: (30 °C) -1.33 ± 0.13; (37 °C) 0.208 ± 0.15.

Regarding AGCGAGCAAUAUUACGCGGU, the “self-splicing fitness (ln)” value (30 °C) is -4.94 ± 0.58.

With ACGAAGCAAUAUUACGCCUG, the “self-splicing fitness (ln)” value (30 °C) is -0.445 ± 0.095 and the “self-splicing fitness (ln)” value (37 °C) was found to be 0.217 ± 0.12.

Take UUCGAGCAAUAUUACGAUAU: the “self-splicing fitness (ln)” value (30 °C) is -3.85 ± 0.33 and the “self-splicing fitness (ln)” value (37 °C) was -2.51 ± 0.49.

Turning to CCGAAGCAAUAUUACGCUAC, the “self-splicing fitness (ln)” value (30 °C) is -2.35 ± 0.79 and the “self-splicing fitness (ln)” value (37 °C) is -3.23 ± 0.74.

AGCGAGCAAUAUUACGCGCU: for the setting “37 °C”, the “self-splicing fitness (ln)” value was -1.36 ± 0.53.

In the case of GUCUAGCAAUAUUACGAGAC, the “self-splicing fitness (ln)” value is -3.7 ± 0.24 (30 °C) and -2.34 ± 0.3 (37 °C).

With GUGUAGCAAUAUUACGCGAC, the “self-splicing fitness (ln)” value is -1.33 ± 0.45 (30 °C) and -1.02 ± 0.27 (37 °C).

As for AGUGAGCAAUAUUACGAAAG, the “self-splicing fitness (ln)” value is -2.65 ± 0.57 (30 °C) and -2.62 ± 0.53 (37 °C).

For the sequence UCAAAGCAAUAUUACGGACC, the “self-splicing fitness (ln)” value (30 °C) was -4.7 ± 0.51.

As for GUGCAGCAAUAUUACGGCUC, the “self-splicing fitness (ln)” value reads like this: (30 °C) -0.0701 ± 0.085; (37 °C) -0.129 ± 0.1.

As for GUCGAGCAAUAUUACGCUGG, the “self-splicing fitness (ln)” value is -5.22 ± 0.72 (30 °C) and -3.65 ± 0.73 (37 °C).

On to GAGUAGCAAUAUUACGGCGA, for which the “self-splicing fitness (ln)” value (30 °C) is -0.645 ± 0.16 and the “self-splicing fitness (ln)” value (37 °C) is -0.441 ± 0.2.

As to UUAUAGCAAUAUUACGUCAU, for the setting “30 °C”, the “self-splicing fitness (ln)” value is -3.04 ± 0.5.

The values are drawn from the supplement of paper PMC7877785.
